# Source: PubChem BioAssay AID493014 (National Center for Advancing Translational Sciences (NCATS), 2011)
# Hit rate of the full screen: of about 340,000 compounds, about 170 (0.05%) were called active. The shares of active, inactive and inconclusive entries below differ from those in the screen. Calls follow the shape of the dose curve; as a rule, active = well fitted inhibition curve with a large enough effect in the signal ratio, with a control signal flat (not every such curve was filed as active); inconclusive = small, poorly fitted or top-dose-only effect, or effect the other way, or a change in a side signal; inactive = flat fitted curve, though single readings scatter; the % refers to the signal ratio. Potencies of inconclusive entries are doubtful fits and often do not repeat.
# Experiment: qHTS Assay to Find Inhibitors of Chronic Active B-Cell Receptor Signaling;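 as to activity change, negative = inhibition: plate controls were basal doxycycline-induced cells for no effect and cells given 10 µM MG132 for full effect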
# Settings: ABC-DLBCL IkBa-CBG/CBR reporter, luminescence ratio (green luciferase fused to IkBa over red control in TMD8 lymphoma cells), 4 h; activity change, negative = inhibition: at 46.1 µM (top of the series)
# Summary of the method: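 TMD8 human ABC-DLBCL cells with doxycycline-inducible IκBα–green luciferase fusion and unfused red luciferase, in 0.5% FBS medium; compounds up to 46 uM, 4 h at 37C. Green/red luminescence ratio, filter-overlap corrected, fitted to concentration-response curves.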
# Potency is read from the fitted curve at half-maximal effect.
SMILES,Potency,"activity change, negative = inhibition"
O=C(Nc1ccccn1)c1ccc(S(=O)(=O)N2CCCC2)cc1,"inconclusive: 7.31 µM [rising, partial curve, poor fit]",–
O=C(CCc1c[nH]c2ccccc12)N1CCN(S(=O)(=O)c2ccc(F)cc2)CC1,–,inactive
Cc1ccc2sc(N3CCN(CCNC(=O)c4ccco4)CC3)nc2c1C,–,inactive
O=C(CSc1nc2[nH]ncc2c(=O)[nH]1)Nc1ccccc1,–,inconclusive: 23.6%
Cc1ccc(C2(COC(=O)C(C)C)CO2)c(OC(=O)C(C)C)c1 (stereo unspecified),"inconclusive: 31.6 µM [falling, single point]",–
CCN(CC)CCN(C(=O)c1ccc(C(C)=O)cc1)c1nc2ccc(Cl)cc2s1,–,inconclusive: -0.435%
COC(=O)Nc1ccc2c(c1)N(C(=O)CCN1CCN3CCCC3C1)c1ccccc1CC2 (stereo unspecified),–,inconclusive: -2.66%
COc1ccc(Nc2ccc([N+](=O)[O-])cn2)cc1,–,inconclusive: 1.16%
O=C(Nc1cccnc1)c1ccc(NC(=O)c2ccco2)cc1,–,inconclusive: 15.9%
Cc1nnc(SCC(=O)Nc2nsc(-c3ccc(Cl)cc3)n2)s1,–,inconclusive: 8.73%
CCOC(=O)CSC1=C(C#N)C(C)C2=C(CCCC2=O)N1 (stereo unspecified),"inconclusive: 35.5 µM [rising, partial curve, poor fit]",–
COc1ccc(-n2c(SCC(=O)C(C)(C)C)nc3ccsc3c2=O)cc1,"inconclusive: 3.55 µM [falling, partial curve, poor fit]",–
Cc1ccc(-n2nc3c(=O)n(CCCC(=O)NCc4ccc(C)o4)nc(C)c3c2C)cc1,"inconclusive: 35.5 µM [falling, single point]",–
CC(=O)Nc1sc(N/N=C/c2ccccc2)nc1-c1ccc(C)cc1,–,inactive
O=C(CNC(=O)c1cccc(F)c1)N/N=C/c1ccc(O)c([N+](=O)[O-])c1,"inconclusive: 4.61 µM [falling, single point]",–
C=CC[C@@H](CC(=O)N[C@H](CO)Cc1ccccc1)C(=O)N[C@@H](C)COC(=O)[C@@H](CC=C)CC(=O)OC(C)(C)C,–,inactive
CCCCCn1c(C(Cc2ccccc2)NC(=O)COC)nc2ccccc21 (stereo unspecified),–,inactive
CCOC(=O)c1nnn(-c2nonc2-n2cccc2)c1CCl,–,inactive
CCC(C)c1ccccc1N1CC(C(=O)Nc2ccc(S(=O)(=O)N3CCOCC3)cc2)CC1=O (stereo unspecified),–,inconclusive: 7.71%
COc1ccc(NC(=O)CN(C)C(=O)c2cccc(-n3cccc3)c2)cc1,–,inactive
COc1ccc(C)cc1NC(=O)CN1CCN(C/C=C/c2ccccc2)CC1,"inconclusive: 13 µM [falling, partial curve]",–
COc1ccc(C2CC2/C(=N/O)c2ccccc2)cc1 (stereo unspecified),"inconclusive: 35.5 µM [falling, single point]",–
CCOC(=O)c1c(NC(=O)COC(=O)c2ccc(O)cc2)sc(C(=O)N(C)C)c1C,–,inconclusive: -0.685%
COC(=O)C1=C(C)NC(=O)CC1c1ccc(F)c(Br)c1 (stereo unspecified),–,inconclusive: 1.23%
CC(C)CC(C)c1cc(N)nc2nc3ccccc3n12 (stereo unspecified),–,inconclusive: -17%
O=C1OCCN1C(=O)[C@H]1[C@H](c2ccc([N+](=O)[O-])cc2)C(c2cccc(Cl)c2)=NN1c1ccc(Br)cc1,–,inconclusive: 12.3%
O=C(Nc1cc(C(F)(F)F)ccc1-n1cnc2ccccc21)c1ccccc1,–,inconclusive: -7.85%

# Taken from above:
# O=C(CCc1c[nH]c2ccccc12)N1CCN(S(=O)(=O)c2ccc(F)cc2)CC1 | activity change, negative = inhibition: inactive
# CC(=O)Nc1sc(N/N=C/c2ccccc2)nc1-c1ccc(C)cc1 | activity change, negative = inhibition: inactive

# Continuation.

SMILES,Potency,"activity change, negative = inhibition"
O=C(Oc1cccc(C(=S)N2CCOCC2)c1)c1cc([N+](=O)[O-])cc([N+](=O)[O-])c1,–,inconclusive: -0.148%
CN(C1CCCCC1)S(=O)(=O)c1ccc(NC(=O)CCC(=O)O)cc1,–,inactive
CCOC(=O)Cc1csc(NC(=O)CCCN2C(=O)c3ccccc3C2=O)n1,–,inconclusive: 15.5%
CCS(=O)(=O)c1ccc2oc(Nc3ccccc3C)nc2c1,–,inconclusive: -0.0313%
O=C(O)CSc1c2c(nc3cc(C(=O)Nc4cccc(C(F)(F)F)c4)ccc13)CCC2,–,inactive
O=C(Nc1ccc(-c2csc(Nc3ccccc3)n2)cc1)c1ccccc1,–,inactive
COc1ccc(/C=C/C(=O)Nc2cc(S(=O)(=O)N3CCOCC3)ccc2OC)cc1,"inconclusive: 23.1 µM [cytotoxic, single point]",–
CCOC(=O)C1=C(COC(=O)c2cccc(Br)c2)NC(=O)NC1C (stereo unspecified),–,inactive
CC(=O)c1ccc(OCC(=O)N(C)CC(=O)Nc2ccc(N3CCOCC3)cc2)cc1,–,inconclusive: 4.1%
Nc1c(C(=O)Nc2ccc(S(=O)(=O)N3CCCC3)cc2)sc2nc3ccc(OC(F)(F)F)cc3cc12,–,inactive
CCc1ccccc1NC(=O)Cn1c(=O)n(-c2ccc(CC(=O)NCC3CCCO3)cc2)c(=O)c2ccccc21 (stereo unspecified),–,inactive
CCOc1ccc(NC(=O)NC2CCCc3ccccc32)cc1 (stereo unspecified),–,inconclusive: -12%
COC(=O)c1cc(C(=O)OCC(=O)N(C)C2CCS(=O)(=O)C2)cc([N+](=O)[O-])c1 (stereo unspecified),"inconclusive: 20 µM [falling, partial curve, poor fit]",–
O=[N+]([O-])c1ccc(OCCCOc2cccc3cccnc23)cc1,–,inconclusive: 2.91%
COc1ccc(/C(C)=N/NC(=S)NCCc2ccccc2)c(O)c1,"inconclusive: 1 µM [falling, full curve]",–
O=C(c1cc2ccccc2oc1=O)N(Cc1cccs1)Cc1cccs1,–,inactive
CCc1ccc(C2=NN(CCC(=O)NCCc3ccc(OC)c(OC)c3)C(=O)CC2)cc1,–,inconclusive: -1.1%
CCOC(=O)CN(C)Cc1cn(C)nc1-c1ccc(Oc2ccccc2)cc1,–,inconclusive: 12.6%
Cc1ccc(N2CC(NC(=O)c3cc4ccccc4o3)CC2=O)cc1C (stereo unspecified),–,inactive
COc1ccc(Cc2nc(-c3ccc(NC(=O)c4cccnc4)cc3)no2)cc1,–,inconclusive: 0.0073%
O=C(C1CCN(S(=O)(=O)c2cccc3cccnc23)CC1)N1CCc2ccccc21,–,inconclusive: 2.87%
CCc1ccccc1NC(=O)CCOc1ccccc1,"inconclusive: 11.2 µM [falling, partial curve]",inconclusive: -20.8%
O=C(Nc1ccc(Cc2ccncc2)cc1)c1cccs1,–,inconclusive: -19.7%
CCOC(=O)c1ccc(NC(=O)CN2CCN(C(=O)c3ccco3)CC2)cc1,–,inactive
COc1ccccc1CNS(=O)(=O)c1ccc(-c2cnc(C3CC3)o2)cc1,"inconclusive: 7.94 µM [falling, partial curve]",–
Cc1ccc(C)c(/C=N/NC(=S)NCCc2ccccc2)c1,–,inconclusive: 17%
Cc1ccc2c(c1)C(C)(C)[C@]1(C)NC(=O)CCN21,–,inconclusive: -14.8%

SMILES,Potency,"activity change, negative = inhibition"
COc1ccnc(Oc2ccccc2)c1C(=O)N/C=N/OCc1ccc(F)cc1Cl,"inconclusive: 35.5 µM [falling, single point]",–
CCN(CC)C(=O)Oc1ccc(Cl)c2ccccc12,–,inconclusive: -0.268%
CCOC(=O)c1sc(NC(=O)c2ccc(OC(C)=O)cc2)nc1C,–,inconclusive: -6.74%
Cc1nc2ncnn2c(C)c1CCC(=O)NC(C)CCc1ccco1 (stereo unspecified),–,inconclusive: 0.48%
O=[N+]([O-])c1cc(-c2ccc(/C=N/c3nc4ccccn4c3-c3ccco3)o2)ccc1Cl,"inconclusive: 7.31 µM [rising, partial curve, poor fit]",–
CCn1c(C)cc(C(=O)COC(=O)c2ccccc2[N+](=O)[O-])c1C,–,inconclusive: 0.737%
CCCn1c(SCC(=O)Nc2ccccc2N2CCCCC2)nc2c1c(=O)n(C)c(=O)n2C,–,inconclusive: 8.74%
Cn1ccc2c(OCC(=O)NCc3ccccc3)cccc2c1=O,"inconclusive: 11.2 µM [falling, partial curve]",–
Fc1ccc(N/N=C/c2ccncc2)c(F)c1,–,inactive
Clc1ccc(N=C2SCCS2)cc1,–,inconclusive: 3.58%
CCOC(=O)CN1N=C(/C=C/c2ccc(C(C)C)cc2)CCC1=O,–,inconclusive: 6.49%
Cc1cc(-c2ccc(/C=N/n3cnnc3)o2)c([N+](=O)[O-])cc1C,"inconclusive: 17.8 µM [falling, single point]",–
CN=C1C([N+](=O)[O-])=CC=C2C1=NC1(CCCCC1)N2O,–,inconclusive: 0.0072%
Cc1ccc(C)c(S(=O)(=O)N2CCN(C(=O)[C@@H](NC(=O)c3ccc(F)cc3)C(C)C)CC2)c1,–,inactive
CCC1Oc2ccccc2N(CC(=O)NCCCN2CCN(c3ccc(OC)cc3)CC2)C1=O (stereo unspecified),–,inactive
Cc1nc2ccccc2nc1OCc1ccccc1,–,inconclusive: 4.83%
CC(=O)Nc1nn(C)c2nc(C)cc(C)c12,–,inactive
COc1ccc(/C=N/Nc2ccc(C(=O)O)cc2)c(OC)c1OC,–,inconclusive: 172%
CCc1ccc2oc(C(=O)NCCc3ccc(S(N)(=O)=O)cc3)cc(=O)c2c1,–,inconclusive: 3.23%
CCc1ccccc1NC1=NCC(=O)N1Cc1ccc2c(c1)OCO2,"inconclusive: 4.11 µM [falling, partial curve, poor fit]",–
CCN1CCN(c2cc(C(C)C)nc3c(-c4ccccc4)c(C)nn23)CC1,–,inconclusive: -3.78%
COc1ccc(-c2ccnc(-c3ccc(O)cc3)n2)cc1,–,inconclusive: 0.393%
CC(O)c1cc2c(cc1NC(=O)c1cnn3c1NC(c1ccco1)CC3C(F)(F)F)OCO2 (stereo unspecified),–,inconclusive: 2.52%
CC(c1ccon1)N(C)C(=O)CCc1nnc(C2(c3ccc(Cl)cc3)CCC2)o1 (stereo unspecified),–,inactive
CN(CCNC(=O)c1ccc(CS(=O)(=O)c2ccc(Br)cc2)o1)CCc1ccccc1,–,inconclusive: 0.933%
O=C(CCC1CCCN(Cc2ccc(O)c(Cl)c2)C1)NCc1ccccc1F (stereo unspecified),"inconclusive: 2.24 µM [falling, partial curve, poor fit]",–

# An excerpt from above in order of count of non-hydrogen atoms, high to low:
SMILES,Potency,"activity change, negative = inhibition"
O=[N+]([O-])c1cc(-c2ccc(/C=N/c3nc4ccccn4c3-c3ccco3)o2)ccc1Cl,"inconclusive: 7.31 µM [rising, partial curve, poor fit]",–
CC(c1ccon1)N(C)C(=O)CCc1nnc(C2(c3ccc(Cl)cc3)CCC2)o1 (stereo unspecified),–,inactive
CCc1ccc2oc(C(=O)NCCc3ccc(S(N)(=O)=O)cc3)cc(=O)c2c1,–,inconclusive: 3.23%
Clc1ccc(N=C2SCCS2)cc1,–,inconclusive: 3.58%
